Experimental data as given in PMC4735525.
No constants are given. Whether binding was seen depends on the method and setting. Binding seen in cells or lysates may run through a third protein. Some results given as binding are weak or reduced against the parent protein; the word gives no strength.

Protein sequences, listed by entry. Tags and fused reporters are not part of them.
UniProt Q16665: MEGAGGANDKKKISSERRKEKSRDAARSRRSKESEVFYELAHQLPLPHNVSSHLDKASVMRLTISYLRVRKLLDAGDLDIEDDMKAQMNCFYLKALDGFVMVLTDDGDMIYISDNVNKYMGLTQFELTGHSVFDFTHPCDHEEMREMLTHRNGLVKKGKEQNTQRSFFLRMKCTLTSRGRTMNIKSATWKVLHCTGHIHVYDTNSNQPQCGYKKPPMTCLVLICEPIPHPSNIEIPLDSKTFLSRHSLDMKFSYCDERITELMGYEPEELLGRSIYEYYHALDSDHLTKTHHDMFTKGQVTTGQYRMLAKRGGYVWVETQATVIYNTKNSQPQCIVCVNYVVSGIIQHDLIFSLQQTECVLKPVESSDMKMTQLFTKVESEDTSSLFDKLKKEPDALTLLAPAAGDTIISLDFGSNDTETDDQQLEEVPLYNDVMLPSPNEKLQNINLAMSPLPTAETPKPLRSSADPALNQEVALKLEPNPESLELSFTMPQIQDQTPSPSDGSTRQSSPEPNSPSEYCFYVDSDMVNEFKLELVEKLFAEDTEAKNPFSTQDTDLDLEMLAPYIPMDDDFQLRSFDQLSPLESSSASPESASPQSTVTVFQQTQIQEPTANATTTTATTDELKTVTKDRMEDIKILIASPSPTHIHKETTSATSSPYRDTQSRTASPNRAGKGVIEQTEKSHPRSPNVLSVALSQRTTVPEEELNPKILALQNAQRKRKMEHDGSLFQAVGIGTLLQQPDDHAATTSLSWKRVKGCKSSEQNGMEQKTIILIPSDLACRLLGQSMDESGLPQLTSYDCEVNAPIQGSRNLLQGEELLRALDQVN

Target: Hypoxia-inducible factor-1α (HIF-1α), endogenous in HeLa cells (human (endogenous in HeLa)) (UniProt Q16665)
Test: co-IP; endogenous proteins; HeLa cells in hypoxic chamber and/or 5 uM MG132 for 6 h; total cell lysates in EBC200 buffer (50 mM Tris-HCl pH 8, 200 mM NaCl, 0.5% NP-40), antibody overnight at 4 °C, protein G/A-Sepharose, five washes in IP150 buffer, immunoblot

binding: binds
B1: SET7/9 methyltransferase, endogenous in HeLa cells (enzyme, UniProt Q8WTS6 1-366)
chain: MDSDDEMVEEAVEGHLDDDGLPHGFCTVTYSSTDRFEGNFVHGEKNGRGKFFFFDGSTLEGYYVDDALQGQGVYTYEDGGVLQGTYVDGELNGPAQEYDTDGRLIFKGQYKDNIRHGVCWIYYPDGGSLVGEVNEDGEMTGEKIAYVYPDERTALYGKFIDGEMIEGKLATLMSTEEGRPHFELMPGNSVYHFDKSTSSCISTNALLPDPYESERVYVAESLISSAGEGLFSKVAVGPNTVMSFYNGVRITHQEVDSRDWALNGNTLSLDEETVIDVPEPYNHVSKYCASLGHKANHSFTPNCIYDMFVHPRFGPIKCIRTLRAVEADEELTVAYGYDHSPPGKSGPEAPEWYQVELKAFQATQQK
